This is an account of results in PMC11343034, “CDCA7 is an evolutionarily conserved hemimethylated DNA sensor in eukaryotes”.

Weaker means in comparison with the reference protein, sequence or condition of that experiment. For some of these results: Tags and fusion partners may be left off the protein sequences shown. For some of these results: The exact form of at least one protein or probe is not confirmed. For some of these results: At least one verdict rests on a figure or table, not on a statement of the authors. For some of these results: Results from cells or extracts need not show a direct contact.

Data set [1] has as its target T1, hCDCA7 264-371 C339S (Homo sapiens) (UniProt Q9BWT1).
T1 sequence (looked up): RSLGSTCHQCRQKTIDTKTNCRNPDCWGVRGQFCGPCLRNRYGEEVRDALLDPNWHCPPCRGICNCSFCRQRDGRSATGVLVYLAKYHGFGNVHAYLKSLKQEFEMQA
The experiment in a line: EMSA. The note with it: with nucleosome present, which is preferred; 5mC at 15 of strand 2; Oligo EMSA: 20 mM Tris-HCl pH 7.5, 150 mM NaCl, 1 mM DTT, 0.05% NP-40, 10% glycerol, 4 C, 0.5 uM DNA; recombinant protein; residues 264-371; protein details: GST-SUMO removed.

In data set [2] the target is T2, HELLS (endogenous, egg extract) (Xenopus laevis) (UniProt Q4V835).
T2 sequence (looked up, limits assumed): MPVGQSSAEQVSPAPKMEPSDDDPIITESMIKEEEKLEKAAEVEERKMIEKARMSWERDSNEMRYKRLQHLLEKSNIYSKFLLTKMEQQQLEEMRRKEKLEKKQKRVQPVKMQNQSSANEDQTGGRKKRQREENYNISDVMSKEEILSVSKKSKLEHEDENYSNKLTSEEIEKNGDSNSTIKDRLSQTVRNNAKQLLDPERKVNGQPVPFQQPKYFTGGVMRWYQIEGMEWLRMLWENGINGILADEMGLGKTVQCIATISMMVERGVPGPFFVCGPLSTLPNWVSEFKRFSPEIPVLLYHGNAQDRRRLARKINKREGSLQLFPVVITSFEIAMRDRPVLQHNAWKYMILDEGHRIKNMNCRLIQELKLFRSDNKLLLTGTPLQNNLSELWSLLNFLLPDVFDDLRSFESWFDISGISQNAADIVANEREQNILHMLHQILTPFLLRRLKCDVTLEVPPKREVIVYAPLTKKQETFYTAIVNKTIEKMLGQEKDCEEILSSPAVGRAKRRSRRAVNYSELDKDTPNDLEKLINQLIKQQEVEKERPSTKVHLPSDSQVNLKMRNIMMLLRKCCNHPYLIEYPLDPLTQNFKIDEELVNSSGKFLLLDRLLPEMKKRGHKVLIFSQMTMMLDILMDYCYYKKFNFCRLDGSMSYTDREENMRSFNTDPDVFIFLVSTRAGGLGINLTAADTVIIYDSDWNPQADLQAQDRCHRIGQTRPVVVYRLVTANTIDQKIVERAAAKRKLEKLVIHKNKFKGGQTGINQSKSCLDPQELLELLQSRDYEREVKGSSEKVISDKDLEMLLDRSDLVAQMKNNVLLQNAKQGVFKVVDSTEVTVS
The experiment in a line: pull-down. The note with it: protein in an extract, label: 5' biotin on strand 2.

Data set [3] deals with CDCA7e (endogenous, egg extract) (Xenopus laevis). Description: pull-down. The note with it: protein in an extract, label: 5' biotin on strand 2.
Data set [4] deals with CDCA7e R262H, 35S-labeled (Xenopus laevis). The experiment in a line: pull-down. The note with it: no selective association; 5mC at CpG cytosines of strand 1; protein translated in vitro; protein details: 35S-Met; label: 5' biotin on strand 1.
In data set [5] the test system is CDCA7e WT, 35S-labeled (Xenopus laevis). The experiment in a line: pull-down. The note with it: protein translated in vitro, protein details: 35S-Met, label: 5' biotin on strand 1.
For data set [6], the system named is CDCA7e G252V, 35S-labeled (Xenopus laevis). The experiment in a line: pull-down. The note with it: no selective association; 5mC at CpG cytosines of strand 1; protein translated in vitro; protein details: 35S-Met; label: 5' biotin on strand 1.
Data set [7] concerns CDCA7e R232H, 35S-labeled (Xenopus laevis). The experiment in a line: pull-down. The note with it: no selective association; 5mC at CpG cytosines of strand 1; protein translated in vitro; protein details: 35S-Met; label: 5' biotin on strand 1.
Data set [8] addresses T3, N. vectensis CDCA7 homolog (Nematostella vectensis) (UniProt A7SQU1).
T3 sequence (looked up, limits assumed): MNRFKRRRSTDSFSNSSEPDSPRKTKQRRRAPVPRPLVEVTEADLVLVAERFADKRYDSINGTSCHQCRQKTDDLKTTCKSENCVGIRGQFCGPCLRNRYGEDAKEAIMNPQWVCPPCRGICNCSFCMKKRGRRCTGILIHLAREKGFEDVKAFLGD
The experiment in a line: pull-down. The note with it: boiled extract, protein translated in vitro, protein details: 35S-Met, label: 5' biotin on strand 2.

The target in data set [9] is T4, CDCA7L 322-454 (Homo sapiens) (UniProt Q96GN5).
T4 sequence (looked up): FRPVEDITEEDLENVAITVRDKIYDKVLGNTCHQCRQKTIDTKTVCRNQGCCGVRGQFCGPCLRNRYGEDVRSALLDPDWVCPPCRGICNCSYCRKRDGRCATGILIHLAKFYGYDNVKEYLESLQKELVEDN
Description: pull-down. The note with it: egg extract, protein translated in vitro, residues 322-454, protein details: 35S-Met, label: 5' biotin on strand 2.

Data set [10] concerns the target T5, A. thaliana CDCA7 homolog (Arabidopsis thaliana) (UniProt Q0WPT6).
T5 sequence (looked up, limits assumed): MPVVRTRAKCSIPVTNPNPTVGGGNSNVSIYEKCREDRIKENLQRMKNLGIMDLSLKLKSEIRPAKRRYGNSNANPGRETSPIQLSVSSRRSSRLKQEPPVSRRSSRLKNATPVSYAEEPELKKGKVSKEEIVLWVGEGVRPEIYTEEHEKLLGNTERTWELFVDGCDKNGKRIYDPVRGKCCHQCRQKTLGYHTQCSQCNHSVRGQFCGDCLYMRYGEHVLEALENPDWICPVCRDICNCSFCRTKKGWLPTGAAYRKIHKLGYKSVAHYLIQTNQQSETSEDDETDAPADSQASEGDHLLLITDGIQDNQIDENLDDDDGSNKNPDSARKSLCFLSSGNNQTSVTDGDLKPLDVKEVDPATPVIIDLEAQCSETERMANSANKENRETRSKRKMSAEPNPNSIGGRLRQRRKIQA
Description: pull-down. The note with it: boiled extract, protein translated in vitro, protein details: 35S-Met, label: 5' biotin on strand 2.

The target of data set [11] is T6, C. gigas CDCA7 homolog (Crassostrea gigas) (UniProt A0A8W8IWK5).
T6 sequence (looked up, limits assumed): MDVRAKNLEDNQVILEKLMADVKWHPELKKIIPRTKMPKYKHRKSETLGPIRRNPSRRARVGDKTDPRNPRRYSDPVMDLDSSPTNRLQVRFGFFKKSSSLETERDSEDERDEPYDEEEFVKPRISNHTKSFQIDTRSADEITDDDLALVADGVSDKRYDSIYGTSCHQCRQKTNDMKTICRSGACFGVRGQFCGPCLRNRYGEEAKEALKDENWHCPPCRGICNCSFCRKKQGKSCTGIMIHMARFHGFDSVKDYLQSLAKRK
The experiment in a line: pull-down. The note with it: boiled extract, protein translated in vitro, protein details: 35S-Met, label: 5' biotin on strand 2.

The mark [12] stands for this setting: 5mC at 41,47,49,53 of strand 1 and 1,5,7,13 of strand 2.

For “ATCAGAATCCCGGTGCCGAGGCCGCTCAATTGGTCGTAGACAGCTCTAGCACCGCTTAAACGCACGTACGCGCTGTCCCCCGCGTTTTAACCGCCAAGGGGATTACTCCCTAGTCTCCAGGCACGTGTCCGATATATACATCGAT (double strand) [-58C free DNA]”, the binding result in data set [1] is reported as “binds more weakly”.
On to “GCGGGTGATGGACCCTATACGCGGCCGCCCTGGAGAATCCCGGTGCCGCGGCCG (double strand) [54-bp hemi-Me (F)]”, for which the binding result in data set [2] (5mC at 41,47,49,53 of strand 1) and in [3] (5mC at 41,47,49,53 of strand 1) was “binds” throughout.
“TCGGGTTATGTGATGGACCCTATACGCGGGCGCCCTGGAGAATCCTGCAGCCGAGGCCGCTCAATTGGTCGTAGCAAGCTCTAGCACCGCTTAAACGCACGTACGCGCTGTCCCCCGCGTTTTAACCGCCAAGGGGATTACTCCCTAGTCTCCAGGCACGTGTCAGATATATACATCCTGTGCATGTATTGAACAGCGAC (double strand) [200-bp Widom 601 hemimethylated]”: the binding result in [4] is recorded as “binds more weakly”; in data set [5] (5mC at CpG cytosines of strand 1), “binds”; in [6], “binds more weakly”; in data set [7] it was “binds more weakly”.
“GCGGGTGATGGACCCTATACGCGGCCGCCCTGGAGAATCCCGGTGCCGCGGCCG (double strand) [54-bp un-Me]”: the binding result in data set [8], in data set [9], in data set [10], in data set [2], in [3] and in [11] was “binds more weakly” in each case.
Consider “TCGGGTTATGTGATGGACCCTATACGCGGGCGCCCTGGAGAATCCTGCAGCCGAGGCCGCTCAATTGGTCGTAGCAAGCTCTAGCACCGCTTAAACGCACGTACGCGCTGTCCCCCGCGTTTTAACCGCCAAGGGGATTACTCCCTAGTCTCCAGGCACGTGTCAGATATATACATCCTGTGCATGTATTGAACAGCGAC (double strand) [200-bp Widom 601 unmethylated]”, for which the binding result in [5] was “binds more weakly”.
In the case of “GCGGGTGATGGACCCTATACGCGGCCGCCCTGGAGAATCCCGGTGCCGCGGCCG (double strand) [54-bp hemi-Me (R)]”, the binding result in [2] (5mC at 1,5,7,13 of strand 2) and in [3] (5mC at 1,5,7,13 of strand 2) was “binds” in each case.
As for “GCGGGTGATGGACCCTATACGCGGCCGCCCTGGAGAATCCCGGTGCCGCGGCCG (double strand) [54-bp full-Me]”, the binding result was “binds more weakly” in [8] (setting [12]); “binds more weakly” in data set [9] (setting [12]); “binds more weakly” in [10] (above un-Me, 5mC at 41,47,49,53 of strand 1 and 1,5,7,13 of strand 2); “binds more weakly” in data set [2] (setting [12]); “binds more weakly” in data set [3] (setting [12]); “binds more weakly” in data set [11] (setting [12]).
